Assay results published in the supplement of paper PMC7238544.
Structures can show the parent of a compound that is named as a salt. ± gives the standard deviation of the averaged measurements. The list shows a part of the results. The data scatter; read single values as rough.

What was measured:
hAMSC donor 1 [1] = assay: Hoechst total cell count ratio vs vehicle control; higher = more cells (less toxicity)
hAMSC donor 2 [2] = assay: as above
hAMSC donor 1 [3] = assay: transgenic luciferase activity (RLU/mg protein) fold change vs vehicle control (ratio); higher = more transgene expression
hAMSC donor 2 [4] = assay: as above
hAMSC donor 1 [5] = assay: transfection efficiency (EGFP+ cells / Hoechst count) fold change vs vehicle control (ratio); hAMSC are human adipose-derived mesenchymal stem cells given an EGFP-luciferase plasmid by lipofection; higher = enhanced transfection
hAMSC donor 2 [6] = assay: as above
[7] = priming compound concentration 0.2 µM
[8] = priming compound concentration 1.7 µM
[9] = priming compound concentration 13 µM

Row | SMILES | Hoechst total cell count ratio (hAMSC donor 1 [1]; [7]) | Hoechst total cell count ratio (hAMSC donor 1 [1]; [8]) | Hoechst total cell count ratio (hAMSC donor 1 [1]; [9]) | Hoechst total cell count ratio (hAMSC donor 2 [2]; [7]) | Hoechst total cell count ratio (hAMSC donor 2 [2]; [8]) | Hoechst total cell count ratio (hAMSC donor 2 [2]; [9]) | transgenic luciferase activity (hAMSC donor 1 [3]; [7]) | transgenic luciferase activity (hAMSC donor 1 [3]; [8]) | transgenic luciferase activity (hAMSC donor 1 [3]; [9]) | transgenic luciferase activity (hAMSC donor 2 [4]; [7]) | transgenic luciferase activity (hAMSC donor 2 [4]; [8]) | transgenic luciferase activity (hAMSC donor 2 [4]; [9]) | transfection efficiency (hAMSC donor 1 [5]; [7]) | transfection efficiency (hAMSC donor 1 [5]; [8]) | transfection efficiency (hAMSC donor 1 [5]; [9]) | transfection efficiency (hAMSC donor 2 [6]; [7]) | transfection efficiency (hAMSC donor 2 [6]; [8]) | transfection efficiency (hAMSC donor 2 [6]; [9])
1 | CCCCNc1cc(C(=O)O)cc(S(N)(=O)=O)c1Oc1ccccc1 [Bumetanide] | 1.2 ± 0.057 | 1.35 ± 0.04 | 1.17 ± 0.031 | 1.13 ± 0.073 | 1.11 ± 0.042 | 1.43 ± 0.27 | 0.788 ± 0.43 | 0.717 ± 0.16 | 1.16 ± 0.45 | 0.521 ± 0.16 | 1.35 ± 0.53 | 0.568 ± 0.17 | 1.16 ± 0.26 | 1.04 ± 0.38 | 0.744 ± 0.32 | 0.844 ± 0.13 | 0.984 ± 0.11 | 1 ± 0.31
2 | Cc1ccc(NC(=O)c2ccc(CN3CCN(C)CC3)cc2)cc1Nc1nccc(-c2cccnc2)n1 [Imatinib mesylate] | 0.874 ± 0.31 | 0.919 ± 0.043 | 0.903 ± 0.068 | 1.16 ± 0.25 | 0.937 ± 0.049 | 0.756 ± 0.055 | 0.838 ± 0.4 | 1.18 ± 1.1 | 0.313 ± 0.1 | 0.732 ± 0.12 | 0.353 ± 0.042 | 0.632 ± 0.054 | 1.42 ± 0.56 | 0.936 ± 0.31 | 0.556 ± 0.12 | 0.93 ± 0.2 | 0.923 ± 0.1 | 0.827 ± 0.083
3 | CN(C)CCOC(c1ccccc1)c1ccccc1 [Diphenhydramine hydrochloride] | 1.07 ± 0.038 | 1.27 ± 0.07 | 1.19 ± 0.069 | 1.11 ± 0.1 | 0.81 ± 0.062 | 1.33 ± 0.16 | 0.606 ± 0.18 | 0.807 ± 0.12 | 0.908 ± 0.19 | 0.715 ± 0.2 | 2.44 ± 1.5 | 0.902 ± 0.081 | 1.21 ± 0.27 | 0.965 ± 0.28 | 0.833 ± 0.18 | 1.22 ± 0.15 | 1.57 ± 0.14 | 1.1 ± 0.18
4 | CC(C)(C)NC(=O)[C@@H]1CN(Cc2cccnc2)CCN1C[C@@H](O)C[C@@H](Cc1ccccc1)C(=O)N[C@H]1c2ccccc2C[C@H]1O [Indinavir sulfate] | 0.972 ± 0.3 | 1.39 ± 0.062 | 1.15 ± 0.23 | 1.08 ± 0.47 | 1.11 ± 0.2 | 1.08 ± 0.021 | 1.1 ± 0.49 | 1.36 ± 0.42 | 1.1 ± 1.2 | 1.17 ± 0.56 | 0.408 ± 0.024 | 0.527 ± 0.045 | 1.09 ± 0.22 | 1.01 ± 0.13 | 1.35 ± 0.7 | 0.983 ± 0.082 | 1.14 ± 0.21 | 1.06 ± 0.051
5 | CN1CCC(=C2c3ccccc3CCc3sccc32)CC1 [Pizotyline maleate] | 0.934 ± 0.13 | 1.24 ± 0.16 | 1.23 ± 0.15 | 1.48 ± 0.3 | 1.187 ± 0.0048 | 1.2 ± 0.021 | 0.943 ± 0.41 | 0.765 ± 0.1 | 0.153 ± 0.044 | 0.693 ± 0.18 | 0.748 ± 0.022 | 0.457 ± 0.31 | 1.26 ± 0.22 | 1.07 ± 0.083 | 0.778 ± 0.16 | 0.828 ± 0.16 | 0.832 ± 0.04 | 0.786 ± 0.088
6 | CC1=C(/C=C/C(C)=C/C=C/C(C)=C/C(=O)O)C(C)(C)CCC1 [trans-Retinoic acid] | 1 ± 0.038 | 0.877 ± 0.15 | 0.912 ± 0.039 | 0.906 ± 0.21 | 0.754 ± 0.022 | 1.28 ± 0.16 | 0.812 ± 0.12 | 0.687 ± 0.22 | 0.706 ± 0.26 | 0.594 ± 0.18 | 0.709 ± 0.022 | 0.711 ± 0.071 | 1.23 ± 0.098 | 0.839 ± 0.38 | 1.13 ± 0.34 | 1.29 ± 0.22 | 1.12 ± 0.038 | 0.718 ± 0.15
7 | CCCCN1CCCC1CNC(=O)c1cc(C#N)c2ccccc2c1OC (centres undefined) [Nafadotride] | 1.13 ± 0.25 | 1.39 ± 0.2 | 1.13 ± 0.16 | 1.48 ± 0.26 | 1.07 ± 0.028 | 1.11 ± 0.048 | 0.558 ± 0.31 | 1.73 ± 1.4 | 1.94 ± 0.48 | 1.04 ± 0.34 | 0.855 ± 0.13 | 0.685 ± 0.12 | 0.677 ± 0.17 | 0.998 ± 0.12 | 1.58 ± 0.53 | 0.962 ± 0.23 | 1.44 ± 0.039 | 0.997 ± 0.069
8 | CCC(=O)O[C@]1(C(=O)SCF)[C@H](C)C[C@H]2[C@@H]3C[C@H](F)C4=CC(=O)C=C[C@]4(C)[C@@]3(F)[C@@H](O)C[C@@]21C [Fluticasone propionate] | 1.23 ± 0.11 | 1.22 ± 0.067 | 1.03 ± 0.097 | 1.86 ± 0.1 | 0.901 ± 0.023 | 0.783 ± 0.05 | 12.3 ± 4.7 | 8.39 ± 1.6 | 4.38 ± 0.78 | 4.49 ± 1.2 | 3.47 ± 0.12 | 4.63 ± 0.49 | 2.66 ± 0.67 | 1.7 ± 0.32 | 1.99 ± 0.52 | 1.51 ± 0.17 | 2.59 ± 0.26 | 2.27 ± 0.35
9 | CCN1CCC[C@H]1CNC(=O)c1cc(S(N)(=O)=O)ccc1OC [Levosulpiride] | 1.2 ± 0.059 | 1.03 ± 0.13 | 1.08 ± 0.15 | 1.06 ± 0.22 | 1.05 ± 0.25 | 1.43 ± 0.42 | 0.586 ± 0.23 | 0.832 ± 0.28 | 2.32 ± 2.5 | 0.62 ± 0.21 | 0.752 ± 0.14 | 1.16 ± 0.64 | 1.43 ± 0.52 | 1.28 ± 0.49 | 1.32 ± 0.14 | 1.26 ± 0.4 | 1.18 ± 0.41 | 1.1 ± 0.21
10 | NC(=O)c1ncn([C@@H]2O[C@H](CO)[C@@H](O)[C@H]2O)n1 [Ribavirin] | 1.03 ± 0.099 | 1.01 ± 0.03 | 1.15 ± 0.084 | 1.27 ± 0.16 | 1.01 ± 0.12 | 1.33 ± 0.13 | 1.05 ± 0.94 | 0.86 ± 0.11 | 0.536 ± 0.21 | 0.426 ± 0.21 | 1.69 ± 0.74 | 1.56 ± 0.2 | 1.27 ± 0.16 | 1.35 ± 0.19 | 0.906 ± 0.27 | 0.93 ± 0.043 | 1.17 ± 0.056 | 1.21 ± 0.22
11 | Cc1cccc(C)c1OCC(C)N (centres undefined) [Mexiletine hydrochloride] | 1.04 ± 0.017 | 0.964 ± 0.054 | 0.984 ± 0.084 | 0.929 ± 0.12 | 0.925 ± 0.12 | 1.33 ± 0.33 | 0.581 ± 0.15 | 1.2 ± 0.42 | 1.31 ± 0.53 | 0.562 ± 0.18 | 1.17 ± 0.12 | 0.68 ± 0.4 | 1.1 ± 0.28 | 1.87 ± 0.06 | 1.31 ± 0.61 | 1.11 ± 0.15 | 1.26 ± 0.3 | 1.14 ± 0.18
12 | CC(=O)OCC(=O)[C@@]12OC3(CCCC3)O[C@@H]1C[C@H]1[C@@H]3CCC4=CC(=O)C=C[C@]4(C)[C@@]3(F)[C@@H](O)C[C@@]12C [Amcinonide] | 1.25 ± 0.055 | 1.25 ± 0.13 | 1.02 ± 0.075 | 1.61 ± 0.018 | 1.16 ± 0.091 | 1.63 ± 0.073 | 3.13 ± 0.77 | 6.24 ± 1.3 | 8.12 ± 2.5 | 1.14 ± 0.32 | 4.5 ± 0.34 | 4.3 ± 0.64 | 1.79 ± 0.41 | 2.48 ± 1.6 | 2.27 ± 0.62 | 1.12 ± 0.038 | 1.8 ± 0.1 | 1.62 ± 0.11
13 | Nc1c2c(nc3c1CCC3)CCCC2 [Ipidacrine] | 1.03 ± 0.15 | 1.25 ± 0.17 | 1.01 ± 0.2 | 1.46 ± 0.54 | 1.03 ± 0.021 | 1.05 ± 0.077 | 0.899 ± 0.41 | 1.04 ± 0.23 | 0.227 ± 0.1 | 0.612 ± 0.15 | 0.603 ± 0.16 | 1.16 ± 1.1 | 1.53 ± 0.37 | 0.878 ± 0.3 | 1.02 ± 0.15 | 0.766 ± 0.12 | 1.16 ± 0.14 | 1.1 ± 0.42
